Test results as given in paper PMC7647994.
Results are given in words; binding and its absence hold for the method and conditions named. For some assays here: In cells and extracts the contact can be indirect. Some binding calls cover weakened binding; strength is not graded here. For some assays here: Where a sequence is shown, tags or fusion partners need not be part of it.

Sequences of proteins named here, by UniProt entry; tags and fusion partners are left off. Residues count along the entry.
UniProt O76031, residues 57-633: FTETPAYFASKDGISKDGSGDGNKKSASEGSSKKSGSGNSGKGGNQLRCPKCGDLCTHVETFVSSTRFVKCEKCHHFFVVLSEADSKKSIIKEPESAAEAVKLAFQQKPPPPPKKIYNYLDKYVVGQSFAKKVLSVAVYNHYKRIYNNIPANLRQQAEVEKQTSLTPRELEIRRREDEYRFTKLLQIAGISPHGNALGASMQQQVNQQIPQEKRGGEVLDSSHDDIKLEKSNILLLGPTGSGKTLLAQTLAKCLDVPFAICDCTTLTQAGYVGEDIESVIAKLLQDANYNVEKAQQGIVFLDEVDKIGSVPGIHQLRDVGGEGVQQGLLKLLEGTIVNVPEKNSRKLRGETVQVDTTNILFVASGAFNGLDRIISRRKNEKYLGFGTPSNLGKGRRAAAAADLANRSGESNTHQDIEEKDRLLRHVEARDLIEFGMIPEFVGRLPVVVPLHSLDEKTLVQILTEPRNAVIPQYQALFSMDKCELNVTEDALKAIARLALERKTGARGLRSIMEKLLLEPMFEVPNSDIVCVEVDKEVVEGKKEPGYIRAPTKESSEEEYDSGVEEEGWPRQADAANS

What was measured:
[1] = biological target: CLPX, endogenous (human (endogenous in HeLa)) (UniProt O76031); test: co-IP; endogenous proteins from detergent-solubilised HeLa mitochondria; anti-PDIP38 or anti-CLPX antibodies covalently attached to protein A sepharose; IP buffer pH 7.5, 100 mM KCl, 0.5% Triton X-100, 10 mM ATP, 1 h at 4 °C; preimmune serum as control
[2] = biological target: CLPP (human), Q16740; test: AUC; fluorescence detected sedimentation velocity (FD-AUC); GFP-PDIP38 50 nM, CLPX_(TRAP) 500 nM, CLPP 2.8 µM; 50 mM Tris-HCl pH 8.0, 100 mM KCl, 20 mM MgCl2, 5 mM ATP, 10 °C; both purified; details: remark: other sources report otherwise

| binding [1] | Binder | binding [2] |
| --- | --- | --- |
| binds | Polymerase δ interacting protein of 38 kDa (PDIP38), endogenous (protein, UniProt Q9Y2S7 52-368) SSRNRPEGKVLETVGVFEVPKQNGKYETGQLFLHSIFGYRGVVLFPWQARLYDRDVASAAPEKAENPAGHGSKEVKGKTHTYYQVLIDARDCPHISQRSQTEAVTFLANHDDSRALYAIPGLDYVSHEDILPYTSTDQVPIQHELFERFLLYDQTKAPPFVARETLRAWQEKNHPWLELSDVHRETTENIRVTVIPFYMGMREAQNSHVYWWRYCIRLENLDSDVVQLRERHWRIFSLSGTLETVRGRGVVGREPVLSKEQPAFQYSSHVSLQASSGHMWGTFRFERPDGSHFDVRIPPFSLESNKDEKTPPSGLHW | – |
| – | GFP-PDIP38 fusion protein, Q9Y2S7 52-368 (protein) SSRNRPEGKVLETVGVFEVPKQNGKYETGQLFLHSIFGYRGVVLFPWQARLYDRDVASAAPEKAENPAGHGSKEVKGKTHTYYQVLIDARDCPHISQRSQTEAVTFLANHDDSRALYAIPGLDYVSHEDILPYTSTDQVPIQHELFERFLLYDQTKAPPFVARETLRAWQEKNHPWLELSDVHRETTENIRVTVIPFYMGMREAQNSHVYWWRYCIRLENLDSDVVQLRERHWRIFSLSGTLETVRGRGVVGREPVLSKEQPAFQYSSHVSLQASSGHMWGTFRFERPDGSHFDVRIPPFSLESNKDEKTPPSGLHW | no binding (tested: GFP-PDIP38 50 nM, CLPP 2.8 µM) |
